# Measured values published in PubChem BioAssay AID256 (DTP/NCI, 2004).
# The list is a part of this screen's results and no random one: it gathers tests that were run many times, whatever their T/C, doses with no T/C, and many T/C values between a quarter and a half above the control. Further doses and runs are listed elsewhere. T/C gives the treated animals as a percentage of the vehicle group. Where survival is the endpoint, this PubChem deposit counts one and a half times the control or more as active, and values a quarter to a half above the control carry no call in these data; other NCI protocols may use other cut-offs. Schedule codes are those of the source, taken here to give the interval after Q, in days (D) or hours (H), and the number of doses after X. Brackets with × count equal records among those shown. Some T/C values carry the count of animals alive at the toxicity check (mostly the fifth day); where none is given, no animal had died by that day. Some entries were tested several times; their values stand side by side, smallest first.
# Tested on: CD2F1 mice, L1210 leukemia ip, survival T/C
# Test: NCI In Vivo Anticancer Drug Screen. Data for tumor model L1210 Leukemia (intraperitoneal) in CD2F1 (CDF1) mice
# Conditions: T/C endpoint: mean survival time, higher T/C = longer survival
# Procedure, shortened: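 Ratio T/C, where T is the treated-group value and C the vehicle-dosed control value, from mice implanted with a transplantable tumor.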
smiles,measurement,setting,value
COc1cccc2c1C(=O)c1c(O)c3c(c(O)c1C2=O)C[C@@](O)(C(=O)CO)C[C@@H]3OC1CC(N)C(O)C(C)O1 (some centres not stated),T/C,"dose: 0.19 mg/kg/injection, schedule: Q01DX009 (ip), vehicle: saline",128 % of control
same,T/C,"dose: 0.25 mg/kg/injection, schedule: Q01DX009 (ip), vehicle: saline, evaluated on day 30","103, 111, 114, 117, 122, 124 (2×), 125, 127 % of control"
same,T/C,"dose: 0.25 mg/kg/injection, schedule: Q01DX009 (ip), vehicle: saline, evaluated on day 35",126 % of control
same,T/C,"dose: 0.25 mg/kg/injection, schedule: Q01DX009 (ip), vehicle: saline, evaluated on day 45",109 % of control
same,T/C,"dose: 0.25 mg/kg/injection, schedule: Q01DX009 (ip), vehicle: saline, evaluated on day 60",112 and 129 % of control
same,T/C,"dose: 0.25 mg/kg/injection, schedule: Q01DX009 (ip), vehicle: water, evaluated on day 30",135 % of control
same,T/C,"dose: 0.25 mg/kg/injection, schedule: Q01DX009 (ip), vehicle: water, evaluated on day 35",108 % of control
same,T/C,"dose: 0.25 mg/kg/injection, schedule: Q01DX009 (ip), vehicle: water, evaluated on day 45","113, 115, 117 (2×), 121 (3×), 124 % of control"
same,T/C,"dose: 0.31 mg/kg/injection, schedule: Q04DX003 (ip), vehicle: water",126 % of control
same,T/C,"dose: 0.39 mg/kg/injection, schedule: Q01DX009 (ip), vehicle: saline",135 % of control
same,T/C,"dose: 0.39 mg/kg/injection, schedule: Q01DX009 (ip), vehicle: water, evaluated on day 30",129 % of control
same,T/C,"dose: 0.39 mg/kg/injection, schedule: Q01DX009 (ip), vehicle: water, evaluated on day 45",134 % of control
same,T/C,"dose: 0.4 mg/kg/injection, schedule: Q01DX009 (ip), vehicle: dextrose",129 % of control
same,T/C,"dose: 0.43 mg/kg/injection, schedule: Q01DX009 (ip), vehicle: saline",134 % of control
same,T/C,"dose: 0.5 mg/kg/injection, schedule: Q01DX005 (ip), vehicle: water, evaluated on day 30",133 % of control
same,T/C,"dose: 0.5 mg/kg/injection, schedule: Q01DX005 (ip), vehicle: water, evaluated on day 45",129 % of control (2×)
same,T/C,"dose: 0.5 mg/kg/injection, schedule: Q01DX009 (ip), vehicle: saline, evaluated on day 30","113, 121, 122, 125, 129, 131, 136 (2×), 137, 143 % of control"
same,T/C,"dose: 0.5 mg/kg/injection, schedule: Q01DX009 (ip), vehicle: saline, evaluated on day 35",134 % of control
same,T/C,"dose: 0.5 mg/kg/injection, schedule: Q01DX009 (ip), vehicle: saline, evaluated on day 45",119 % of control
same,T/C,"dose: 0.5 mg/kg/injection, schedule: Q01DX009 (ip), vehicle: saline, evaluated on day 60",138 and 140 % of control
same,T/C,"dose: 0.5 mg/kg/injection, schedule: Q01DX009 (ip), vehicle: water, evaluated on day 5",140 % of control
same,T/C,"dose: 0.5 mg/kg/injection, schedule: Q01DX009 (ip), vehicle: water, evaluated on day 30",121 and 145 % of control [5 of 6 alive]
same,T/C,"dose: 0.5 mg/kg/injection, schedule: Q01DX009 (ip), vehicle: water, evaluated on day 35",123 % of control
same,T/C,"dose: 0.5 mg/kg/injection, schedule: Q01DX009 (ip), vehicle: water, evaluated on day 45","117, 119, 123, 128, 129, 131, 136, 137 % of control [5 of 6 alive]"
same,T/C,"dose: 0.65 mg/kg/injection, schedule: Q01DX009 (ip), vehicle: saline",136 % of control
same,T/C,"dose: 0.72 mg/kg/injection, schedule: Q01DX009 (ip), vehicle: saline",130 % of control
same,T/C,"dose: 0.75 mg/kg/injection, schedule: Q01DX009 (ip), vehicle: saline",147 % of control
same,T/C,"dose: 0.78 mg/kg/injection, schedule: Q01DX009 (ip), vehicle: water, evaluated on day 30",128 and 129 % of control
same,T/C,"dose: 0.78 mg/kg/injection, schedule: Q01DX009 (ip), vehicle: water, evaluated on day 45",130 and 136 % of control
same,T/C,"dose: 0.79 mg/kg/injection, schedule: Q01DX009 (ip), vehicle: dextrose",139 % of control
same,T/C,"dose: 1.0 mg/kg/injection, schedule: Q01DX005 (ip), vehicle: water, evaluated on day 30",139 % of control
same,T/C,"dose: 1.0 mg/kg/injection, schedule: Q01DX005 (ip), vehicle: water, evaluated on day 45",137 % of control
same,T/C,"dose: 1.0 mg/kg/injection, schedule: Q01DX009 (ip), vehicle: saline, evaluated on day 30","113, 123, 128, 131, 134, 135, 140, 141, 142, 200 % of control"
same,T/C,"dose: 1.0 mg/kg/injection, schedule: Q01DX009 (ip), vehicle: saline, evaluated on day 35",176 % of control
same,T/C,"dose: 1.0 mg/kg/injection, schedule: Q01DX009 (ip), vehicle: saline, evaluated on day 45",138 % of control
same,T/C,"dose: 1.0 mg/kg/injection, schedule: Q01DX009 (ip), vehicle: saline, evaluated on day 60",141 and 143 % of control
same,T/C,"dose: 1.0 mg/kg/injection, schedule: Q01DX009 (ip), vehicle: water, evaluated on day 5",146 % of control
same,T/C,"dose: 1.0 mg/kg/injection, schedule: Q01DX009 (ip), vehicle: water, evaluated on day 30",134 and 157 % of control
same,T/C,"dose: 1.0 mg/kg/injection, schedule: Q01DX009 (ip), vehicle: water, evaluated on day 35",142 % of control
same,T/C,"dose: 1.0 mg/kg/injection, schedule: Q01DX009 (ip), vehicle: water, evaluated on day 45","122, 129, 134, 135, 142, 146, 152, 168 % of control"
same,T/C,"dose: 1.0 mg/kg/injection, schedule: Q01DX009 (ip), vehicle: water, run until all animals had died",140 % of control
same,T/C,"dose: 1.08 mg/kg/injection, schedule: Q01DX009 (ip), vehicle: saline",139 % of control
